PubChem BioAssay AID1259424, University of Nebraska Medical Center, 2018
Purpose: 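Rank knockdowns across the genome by resemblance to the KSR1 depletion profile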 (primary screen). Cell system: human HCT116 colon cancer cells. Reagent: siRNA pool against human genes, 50 nM. Detection: 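Six signature mRNAs by branched-DNA multiplex assay, scaled to two housekeeping genes and non-targeting median, log2; matched to mean KSR1 knockdown profile by Pearson correlation and euclidean distance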. Reading the numbers: mean correlation with KSR1 profile and KSR1 correlation: higher = expression change more like KSR1 knockdown; mean distance from KSR1 profile: higher = expression change less like KSR1 knockdown.
This is a random part of about 14,000 reagents tested. 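Higher correlation or smaller distance means closer resemblance to KSR1 loss; control wells, including KSR1 knockdowns, recur on many plates.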 No sequences are given here. Not given: the time to read-out.

no.	Gene	mean correlation with KSR1 profile	mean distance from KSR1 profile	KSR1 correlation, replicate 1	KSR1 correlation, replicate 2	KSR1 correlation, replicate 3
1	TLL2	0.298	2.04	0.408	0.391	0.127
2	SIRT7	-0.142	1.34	-0.258	-0.296	0.0238
3	KLHL4	0.223	1.37	0.312	-0.0517	0.0661
4	ZNF638	-0.171	1.04	-0.575	-0.45	-0.433
5	AGR2	-0.352	2.77	0.253	-0.565	-0.174
6	NRBP1	0.404	1.34	0.602	0.423	0.107
7	MRPL47	-0.399	2.48	-0.193	-0.312	-0.343
8	PMF1	-0.454	1.42	-0.103	-0.588	-0.535
9	KPNA6	-0.066	2.16	-0.124	-0.0432	-0.251
10	LRIT1	-0.563	3.35	-0.256	-0.671	-0.646

In a second layout: entries from further up
Gene | mean correlation with KSR1 profile | mean distance from KSR1 profile | KSR1 correlation, replicate 1 | KSR1 correlation, replicate 2 | KSR1 correlation, replicate 3
KPNA6 | -0.066 | 2.16 | -0.124 | -0.0432 | -0.251
LRIT1 | -0.563 | 3.35 | -0.256 | -0.671 | -0.646

The listing continues.
no.	Gene	mean correlation with KSR1 profile	mean distance from KSR1 profile	KSR1 correlation, replicate 1	KSR1 correlation, replicate 2	KSR1 correlation, replicate 3
11	ZDHHC4	0.145	2.21	0.143	0.151	0.217
12	APOL2	-0.377	2.22	-0.471	-0.222	-0.245
13	PANK1	0.501	2.58	0.655	0.611	0.264
14	IL1A	0.0997	2.09	0.0865	-0.0402	0.23
15	WIF1	0.187	1.78	0.564	0.151	-0.399
16	PAG1	0.341	2.24	0.562	0.213	0.258
17	TMEM204	0.812	1.32	0.867	0.77	0.83
18	MAGOH	-0.407	1.57	-0.439	-0.416	-0.306
19	TMX1	0.493	1.73	0.378	0.327	0.577
20	ITGA7	0.372	0.987	0.468	0.137	0.347
